Measured values: the supplement of paper PMC5949888
Most values lie at the floor of the assay. Slopes are relative: functional sequences can read slightly below zero.

tested on: Saccharomyces cerevisiae PS128 hsf1 delta, HSF1(1-493) fusion; assay: growth estimate (transactivation domain function in HSF1 fusion, heat-shock survival) (a.u. (slope of normalised read count over time)); higher = stronger growth at 37°C, i.e. more transactivation activity; settings: library: random library

Substance | growth estimate
VQGSLSAQPYGLCKSGDSPT | < -0.25
GCMSGVTMFLSRFGSCQQLS | < -0.25
EGIGFISIHA | < -0.25
HKECKKR | < -0.25
DRSCAKNPTSCQPHTGRQQY | < -0.25
IEGRTFTSAVVRSCRRLWPN | < -0.25
KFLLRTGIQRTMQCYHLYVE | < -0.25
HSSRG | < -0.25
LSNLVKSLASADLKALSCRS | < -0.25
SQCSRCHRVLVSESALHRAC | < -0.25
QCYVLGTNSVVPHNRNSAPV | < -0.25
GRGGCECQILERRINCSR | < -0.25
AVLIQGGQWALAQGNGVQAS | < -0.25
TQASSDPIRHSSR | < -0.25
LMERAVRQRVVVILTKGFTD | < -0.25
AADARLVVR | < -0.25
DPALRVPILVWGSSSVLVDH | < -0.25
CWVKIPGEDLRKGYADIETV | -0.246
SSDAAKGEWPHMKQGDLPVV | < -0.25
LGDYHNCFLSEFLHGPLGVG | < -0.25
RTISMCPDDVQIFRNARVN | < -0.25
PDERVGRLTVGLEPTALSHP | < -0.25
IREQSTV | -0.248

Substance | growth estimate
KSRSWGEVTLTALTEDDQLT | < -0.25
SIATQDYYWVPQTASI | < -0.25
GPIGFDGG | < -0.25
GYHRGSM | < -0.25
GYPAITRSSSRRS | < -0.25
RYMSWGVGS | < -0.25
RLI | < -0.25
SGASYFEFYTGNNTRLRFSF | < -0.25
IARPLEHYRELGGGIRIFEQ | < -0.25
RVTVSANLATPAHSLRKGWR | < -0.25
SVRIGKWLPVERGMDSYFSE | < -0.25
TWPGFGTRQC | < -0.25
LSV | < -0.25
LLPRRCVYPRYFNWASASKH | < -0.25
SYAKWRLVCQSRRSTPERLR | < -0.25
YGVCHSNPRRLRRGVRGHRL | < -0.25
SPLGYYLVAPCPWI | < -0.25
CSPGYALIV | < -0.25
KPFRAETWDIRPEDLCVNDD | < -0.25
TVLAPRTVSLTLL | < -0.25
RSCAKRMFD | < -0.25
GRECRITSGRRGVTLVGVGH | < -0.25
QNIRDLRRAWLGCREAHVGL | < -0.25

Substance | growth estimate
ARLSSLKVASVRRGQRSTNV | -0.245
SWNRMFQTATNTVSTIGATL | < -0.25
TGGVIYFALGEVLL | < -0.25
PMRRRRTAGPTLVGGCGSLG | < -0.25
AWNRDKPVPSGG | < -0.25
RLHLLGCVKFVSKINESALY | < -0.25
RGEQSDL | < -0.25
LGLEMTRLRLRYLKSPCPLH | < -0.25
ARGEDEFADNGWGRIVAVKL | < -0.25
DVYPGPGYMPRFRRRSVPHQ | < -0.25
FSRGVAS | < -0.25
LSKGRAIENVAREKYQYLSG | < -0.25
SCQYS | < -0.25
GNFGLSSSCV | < -0.25
TAGRPRT | < -0.25
LQRAGRLPSPRYPEMRILEA | < -0.25
VQTVHRFK | < -0.25
ISGLSGLPRYLRDHVCALAV | < -0.25
HPTN | < -0.25
LVCVGRIFACGPLHGPFYLR | < -0.25
CPRLCPQRHHLAATWPVCVP | < -0.25
ASVIGIIRLRRRWGIVFGLI | < -0.25
LRGPCGFIRP | < -0.25

Substance | growth estimate
ARRHVQDYANVLGGGGTESA | < -0.25
SQTLEGPL | < -0.25
QGNAGILVSMLAAEKRSRWD | < -0.25
ERSDLGPSPKTVP | < -0.25
TRSRQRTEHDPS | < -0.25
AEKAKPLSLNAGPNPCQRSI | < -0.25
HLV | < -0.25
IYGLRGCQVCKDIKGVPSAR | < -0.25
GTNIHAPSTDGRQRSGCHAR | < -0.25
DCA | < -0.25
VGWV | < -0.25
EDPPTLCAKLRVYNWHMCRA | < -0.25
LGLCCEGGEQRPEPCGPLNA | < -0.25
EFLLLLPCPAG | < -0.25
GVPT | < -0.25
SAWYPTPGARF | -0.239
SMYVLVRFRA | < -0.25
RFISQGNGFKRCNRWIQDTR | < -0.25
FLHSTSEP | < -0.25
SSGSLNASVGVSPSIY | < -0.25
PIRGTERGGCEVRAIYPRPT | < -0.25
RAVWG | < -0.25
WRLINSLDSGADVDAGGPAL | < -0.25

Substance | growth estimate
LKGVKPAATMSGSLQL | < -0.25
STCRNEYTFQGFC | < -0.25
WNSAIGKSRMSWWAQRPSQT | < -0.25
GASI | < -0.25
TSEQVN | -0.187
NDRLIIRTGPLYRSMQSGWT | -0.229
RKVVLDP | < -0.25
SAAERVRSGREEDADMPSSI | < -0.25
HCCRYVNQI | < -0.25
GFKYTLTMYAWKAYHIFIVR | < -0.25
RRE | < -0.25
TMGGNIKGLSDLNGIVWYTE | < -0.25
AQEQDYNKFEFPWYHTIGS | 0.0226
MGGTQAGRI | < -0.25
LATTPGAGPLVLDVLDT | < -0.25
VPPL | < -0.25
VTCNPRYGA | < -0.25
YLRVVEPNCNRTRRNEVFEN | < -0.25
SMHVAACTCACFDPSHLAML | -0.193
VPTPGKSLWHESALELDPGC | -0.237
RGGRRTFPAFVFRVTNRSEC | < -0.25
GSGKVLWPSLVSPMV | < -0.25
SSASPFGAGLPRVLIHVGRT | < -0.25

Substance | growth estimate
GSFGTFDLRLQRGRQVNLLI | < -0.25
VSYDVAFRVQFDRALGSSTT | < -0.25
GSYSRWDKFYRLLIPRVEDR | < -0.25
RATSSAVCCCALPDGEKHPG | -0.245
FRCRYTAYSTRRHRSARWNG | < -0.25
DAGTRTSPT | < -0.25
FEIFIDNPSRRIV | < -0.25
GDGV | < -0.25
GRIRKTTRCTPTRL | < -0.25
KPGSQRLFFSPRGAGSSWHS | < -0.25
MTQQYTLLFSDSLIE | < -0.25
LSGPRFQLLGCVYAPFDHEV | < -0.25
GGRWLMKLFDGDIT | < -0.25
NLLASLIQYH | < -0.25
KGTQFLGLRWRT | < -0.25
WIGRALC | < -0.25
HPARAGKK | < -0.25
RFPTGTCEM | < -0.25
HWGRKRYGQGIFIFVPLSLY | < -0.25
TASKIRIVFSGLR | -0.245
ATP | < -0.25
QVEG | < -0.25
LRIPLFQHRGWNCAWGPPPF | -0.243

Substance | growth estimate
RHFICRHTQPKCTNWY | < -0.25
GDRRVREYRGLWGSSGCRRT | < -0.25
GPGLDSY | < -0.25
DAPGCGTARRPATRPSHAIT | < -0.25
KPDYGSREESKT | < -0.25
GHPPSWGEYKSKTPF | < -0.25
FGNGPC | < -0.25
DIAGSAGSLWGGAPRTASTI | < -0.25
SGS | < -0.25
GLVYAGRRGVGWAQRCTGEV | < -0.25
FCNRPGVSGSWGLVTNVELA | < -0.25
SSVSYL | < -0.25
IHASG | < -0.25
QVY | < -0.25
CRTKCNSLDWTTAAVSGVHH | < -0.25
RSQGRCRMGGGTVVGSWLH | -0.231
GSVHLCPGGRRYV | < -0.25
NMASGTCSQ | < -0.25
SDMT | < -0.25
YWINGTVRPQPGTKRRYLTR | < -0.25

Some of the entries so far, in markdown:

| Substance | growth estimate |
| --- | --- |
| RVTVSANLATPAHSLRKGWR | < -0.25 |
| SVRIGKWLPVERGMDSYFSE | < -0.25 |
| TWPGFGTRQC | < -0.25 |
| LSV | < -0.25 |
| LLPRRCVYPRYFNWASASKH | < -0.25 |
| SYAKWRLVCQSRRSTPERLR | < -0.25 |
| YGVCHSNPRRLRRGVRGHRL | < -0.25 |
| SPLGYYLVAPCPWI | < -0.25 |
| CSPGYALIV | < -0.25 |
| KPFRAETWDIRPEDLCVNDD | < -0.25 |
| TVLAPRTVSLTLL | < -0.25 |
| RSCAKRMFD | < -0.25 |
| GRECRITSGRRGVTLVGVGH | < -0.25 |
| QNIRDLRRAWLGCREAHVGL | < -0.25 |
| ARLSSLKVASVRRGQRSTNV | -0.245 |
| SWNRMFQTATNTVSTIGATL | < -0.25 |
| TGGVIYFALGEVLL | < -0.25 |
| PMRRRRTAGPTLVGGCGSLG | < -0.25 |
| AWNRDKPVPSGG | < -0.25 |
| RLHLLGCVKFVSKINESALY | < -0.25 |
| RGEQSDL | < -0.25 |
| LGLEMTRLRLRYLKSPCPLH | < -0.25 |
| ARGEDEFADNGWGRIVAVKL | < -0.25 |
| DVYPGPGYMPRFRRRSVPHQ | < -0.25 |
| FSRGVAS | < -0.25 |
| LSKGRAIENVAREKYQYLSG | < -0.25 |
| SCQYS | < -0.25 |
| GNFGLSSSCV | < -0.25 |
| TAGRPRT | < -0.25 |
| LQRAGRLPSPRYPEMRILEA | < -0.25 |
| VQTVHRFK | < -0.25 |
| ISGLSGLPRYLRDHVCALAV | < -0.25 |
| HPTN | < -0.25 |
| LVCVGRIFACGPLHGPFYLR | < -0.25 |
| CPRLCPQRHHLAATWPVCVP | < -0.25 |
| ASVIGIIRLRRRWGIVFGLI | < -0.25 |
| LRGPCGFIRP | < -0.25 |
| ARRHVQDYANVLGGGGTESA | < -0.25 |
| SQTLEGPL | < -0.25 |
| QGNAGILVSMLAAEKRSRWD | < -0.25 |
| ERSDLGPSPKTVP | < -0.25 |
| TRSRQRTEHDPS | < -0.25 |
| AEKAKPLSLNAGPNPCQRSI | < -0.25 |
| HLV | < -0.25 |
| IYGLRGCQVCKDIKGVPSAR | < -0.25 |
